Measurements published in patent publication US20080038277A1, “Dna Pkinase Inhibitors For Treating Cancer And Diabetes” (priority 2004, published 2008).
For at least one compound, name, drawing or mass did not settle the structure.

By UniProt entry, the sequences of proteins in these tests, tags left out.
UniProt P78527, whole entry: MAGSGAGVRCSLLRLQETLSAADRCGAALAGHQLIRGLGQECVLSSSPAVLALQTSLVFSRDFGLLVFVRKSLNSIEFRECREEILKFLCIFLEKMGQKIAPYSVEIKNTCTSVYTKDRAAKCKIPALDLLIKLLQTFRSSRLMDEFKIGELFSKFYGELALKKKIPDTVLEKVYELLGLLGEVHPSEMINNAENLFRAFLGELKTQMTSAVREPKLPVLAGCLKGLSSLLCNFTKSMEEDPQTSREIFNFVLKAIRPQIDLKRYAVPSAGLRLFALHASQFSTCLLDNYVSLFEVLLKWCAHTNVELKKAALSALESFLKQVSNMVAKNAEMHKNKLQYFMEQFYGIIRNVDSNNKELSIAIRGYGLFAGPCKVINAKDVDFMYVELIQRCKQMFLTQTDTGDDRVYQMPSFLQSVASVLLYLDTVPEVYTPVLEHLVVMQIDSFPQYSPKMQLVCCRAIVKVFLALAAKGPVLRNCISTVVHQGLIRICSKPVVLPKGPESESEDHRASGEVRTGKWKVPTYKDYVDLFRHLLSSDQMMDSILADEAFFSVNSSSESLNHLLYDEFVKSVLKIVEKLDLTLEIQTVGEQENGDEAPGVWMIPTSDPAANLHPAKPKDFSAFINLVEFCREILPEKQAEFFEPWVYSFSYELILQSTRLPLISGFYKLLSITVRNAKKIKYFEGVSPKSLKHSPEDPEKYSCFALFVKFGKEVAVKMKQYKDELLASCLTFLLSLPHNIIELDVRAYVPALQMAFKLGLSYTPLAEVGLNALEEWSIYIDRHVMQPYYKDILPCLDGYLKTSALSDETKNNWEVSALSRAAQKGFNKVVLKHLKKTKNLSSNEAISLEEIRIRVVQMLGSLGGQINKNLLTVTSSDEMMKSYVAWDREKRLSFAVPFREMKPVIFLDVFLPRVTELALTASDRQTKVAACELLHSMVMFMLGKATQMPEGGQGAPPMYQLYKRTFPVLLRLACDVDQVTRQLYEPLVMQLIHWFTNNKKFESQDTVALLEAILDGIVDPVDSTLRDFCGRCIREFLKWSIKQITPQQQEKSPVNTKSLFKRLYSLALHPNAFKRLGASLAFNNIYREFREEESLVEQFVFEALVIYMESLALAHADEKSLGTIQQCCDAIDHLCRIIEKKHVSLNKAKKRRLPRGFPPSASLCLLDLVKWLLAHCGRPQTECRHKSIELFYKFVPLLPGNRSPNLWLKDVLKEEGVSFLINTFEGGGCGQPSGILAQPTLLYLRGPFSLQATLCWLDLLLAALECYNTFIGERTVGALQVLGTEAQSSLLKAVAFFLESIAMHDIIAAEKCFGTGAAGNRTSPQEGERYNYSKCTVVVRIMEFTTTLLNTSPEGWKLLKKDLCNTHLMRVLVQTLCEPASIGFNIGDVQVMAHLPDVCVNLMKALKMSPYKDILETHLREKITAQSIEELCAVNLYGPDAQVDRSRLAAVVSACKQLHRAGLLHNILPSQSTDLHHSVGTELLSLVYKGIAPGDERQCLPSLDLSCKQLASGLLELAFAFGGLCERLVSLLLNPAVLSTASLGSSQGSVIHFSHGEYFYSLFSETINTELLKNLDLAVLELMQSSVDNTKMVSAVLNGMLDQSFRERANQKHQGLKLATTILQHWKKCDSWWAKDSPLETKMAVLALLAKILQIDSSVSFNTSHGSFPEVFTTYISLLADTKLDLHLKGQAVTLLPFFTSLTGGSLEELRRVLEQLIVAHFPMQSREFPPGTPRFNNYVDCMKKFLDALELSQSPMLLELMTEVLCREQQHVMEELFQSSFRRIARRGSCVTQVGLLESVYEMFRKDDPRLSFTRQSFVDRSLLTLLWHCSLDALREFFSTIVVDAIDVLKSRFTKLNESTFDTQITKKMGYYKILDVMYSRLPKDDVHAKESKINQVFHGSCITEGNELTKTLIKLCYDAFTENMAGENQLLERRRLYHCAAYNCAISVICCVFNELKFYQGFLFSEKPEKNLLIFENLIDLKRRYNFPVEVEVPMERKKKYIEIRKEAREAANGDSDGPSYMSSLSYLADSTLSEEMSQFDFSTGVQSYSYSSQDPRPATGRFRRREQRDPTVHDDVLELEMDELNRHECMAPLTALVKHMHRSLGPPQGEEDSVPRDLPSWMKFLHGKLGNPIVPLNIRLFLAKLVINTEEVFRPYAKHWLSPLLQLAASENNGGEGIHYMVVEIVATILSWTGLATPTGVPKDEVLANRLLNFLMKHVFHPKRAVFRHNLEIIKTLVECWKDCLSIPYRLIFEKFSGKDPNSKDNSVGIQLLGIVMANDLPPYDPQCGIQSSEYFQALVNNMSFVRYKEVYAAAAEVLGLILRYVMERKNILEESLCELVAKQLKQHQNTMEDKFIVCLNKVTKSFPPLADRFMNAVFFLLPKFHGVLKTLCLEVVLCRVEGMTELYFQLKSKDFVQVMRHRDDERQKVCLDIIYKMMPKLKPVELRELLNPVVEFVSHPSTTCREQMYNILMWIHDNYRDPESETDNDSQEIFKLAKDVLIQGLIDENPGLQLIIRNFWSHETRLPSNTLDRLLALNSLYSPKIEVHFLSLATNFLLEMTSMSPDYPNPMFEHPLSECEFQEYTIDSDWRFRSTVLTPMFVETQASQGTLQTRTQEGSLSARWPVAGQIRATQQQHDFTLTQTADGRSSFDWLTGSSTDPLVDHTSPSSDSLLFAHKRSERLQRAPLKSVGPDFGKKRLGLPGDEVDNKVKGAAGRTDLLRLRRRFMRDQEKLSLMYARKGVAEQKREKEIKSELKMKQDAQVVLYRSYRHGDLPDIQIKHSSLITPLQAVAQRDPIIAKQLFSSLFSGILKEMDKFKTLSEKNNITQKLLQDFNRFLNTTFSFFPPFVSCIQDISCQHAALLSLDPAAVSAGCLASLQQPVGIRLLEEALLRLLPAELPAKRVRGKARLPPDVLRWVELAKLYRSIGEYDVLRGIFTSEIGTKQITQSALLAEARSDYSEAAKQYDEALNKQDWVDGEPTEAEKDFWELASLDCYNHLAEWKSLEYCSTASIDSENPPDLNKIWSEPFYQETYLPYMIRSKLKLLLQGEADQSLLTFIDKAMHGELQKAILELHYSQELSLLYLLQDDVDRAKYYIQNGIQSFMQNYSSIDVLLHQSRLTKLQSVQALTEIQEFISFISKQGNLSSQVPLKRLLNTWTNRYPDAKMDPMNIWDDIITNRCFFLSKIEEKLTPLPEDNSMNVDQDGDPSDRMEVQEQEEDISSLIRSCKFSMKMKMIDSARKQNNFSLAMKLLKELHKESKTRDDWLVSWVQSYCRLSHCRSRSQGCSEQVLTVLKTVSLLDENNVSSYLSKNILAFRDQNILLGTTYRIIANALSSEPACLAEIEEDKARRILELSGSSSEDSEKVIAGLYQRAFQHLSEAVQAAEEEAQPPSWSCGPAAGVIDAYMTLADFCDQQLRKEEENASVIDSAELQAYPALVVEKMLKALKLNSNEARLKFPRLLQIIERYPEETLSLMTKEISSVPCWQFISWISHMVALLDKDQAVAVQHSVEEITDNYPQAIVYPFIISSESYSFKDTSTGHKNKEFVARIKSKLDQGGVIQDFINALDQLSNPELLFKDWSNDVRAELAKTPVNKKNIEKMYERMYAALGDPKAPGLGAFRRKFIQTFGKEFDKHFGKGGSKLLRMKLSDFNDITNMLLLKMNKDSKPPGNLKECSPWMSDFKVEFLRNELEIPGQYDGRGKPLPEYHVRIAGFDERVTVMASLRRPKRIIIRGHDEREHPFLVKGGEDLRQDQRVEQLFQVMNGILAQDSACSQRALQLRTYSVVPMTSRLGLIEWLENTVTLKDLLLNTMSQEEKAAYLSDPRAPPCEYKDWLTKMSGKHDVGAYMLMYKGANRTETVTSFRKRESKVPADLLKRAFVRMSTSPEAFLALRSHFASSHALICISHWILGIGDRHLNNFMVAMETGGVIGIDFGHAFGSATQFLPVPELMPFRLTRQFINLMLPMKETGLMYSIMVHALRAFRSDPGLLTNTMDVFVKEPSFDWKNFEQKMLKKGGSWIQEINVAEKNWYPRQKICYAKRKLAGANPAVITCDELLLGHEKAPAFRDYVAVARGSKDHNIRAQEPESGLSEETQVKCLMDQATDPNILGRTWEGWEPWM

What was measured:
purified DNA-PK = molecular target: T1, purified DNA-PK (Homo sapiens, UniProt P78527); test: Purified DNA-PK phosphorylation of PKB (FSY peptide / GST-PKBα419-480); assay type: biochemical; conditions: FSY peptide and GST-PKBα419-480; staurosporine 5 μM (FIGS. 2A and B)
T1 construct: purified DNA-PK (from HeLa cells and human placenta) was tested; purchased Promega; host or cells: HeLa cells and human placenta
Protocol: FIG. 2. DNA-PK phosphorylates and activates PKB in vitro. (A) Purified DNA-PK (Promega) (25 units) was assayed with 0.1 mg/ml of FSY, FAY and DNA-PK p53 substrate peptide (CTL) in the presence (+) or absence (−) of DNA. […]; aliquots of the reaction mixture were removed for assay of PKB activity as described in FIG. 1D or for Western blotting with pS473 and pT308 phospho-specific antibodies. (D) GST-PKBα419-480 and His-p53 (each 1 μg) were incubated with 25 units of purified DNA-PK and 100 μM [γ-32P]ATP in kinase buffer (11). The reactions were terminated and analyzed on 10% SDS-PAGE followed by autoradiography or 32P determination in excised gel slices.
An antibody specific for PKB phosphorylated on Thr-308 (pT308) was purchased from Cell Signaling Technologies. An antibody specific for PKB phosphorylated on Ser-473 (pS473) was produced and purified as previously described (33). Polyclonal anti-PKB antibody (antibody10) (34) and monoclonal anti-PKB (A4D6) (35) have been described previously. Anti-Ku80, and anti-Ku 70 antibodies were purchased from Transduction Labs. Anti-DNA-PKcs (monoclonal G4) was from Santa Cruz Inc. Double-stranded fetal calf thymus DNA was from Sigma, and purified human DNA-PK protein and p53 substrate peptide […] (36) from Promega. […]

S473K1 = molecular target: T2, S473K1 (Homo sapiens, UniProt P78527); test: S473K1 (Mono Q fraction 27) kinase assay with FSY peptide plus DNA, or GST-PKBα419-480 and pS473 Western blot; assay type: biochemical; conditions: LY294002 5 μM, wortmannin 2 μM, staurosporine 5 μM; FSY peptide in presence of DNA and GST-PKBα419-480 (FIGS. 1E and F)
T2 construct: purification and identification of this kinase from HEK293 cells; endogenous in cells; host or cells: HEK293 crude membrane fraction, purified over Q-Sepharose, Mono S and Mono Q
Protocol: FIG. 1. Identification and purification of S473K. (A-C) Mono Q fractions were assayed for S473K activity with the FSY (solid) or FAY peptides (open) in the presence (triangles) or absence (circles) of DNA. […] (B) A 10-μl aliquot of each fraction was subjected to 8% SDS-PAGE and proteins visualized by Coomassie Blue staining. (C) Western blotting of fractions with anti-DNA-PKcs and anti-Ku80/Ku70 antibodies. (D) Recombinant ΔPH-PKBαT309P (PKB) was first incubated with S473K1 (5 μl), 10 μg/ml fetal calf thymus DNA, and 100 μM ATP in kinase buffer for different times. Aliquots of the reaction mixture were removed for assay of PKB activity as described in (11) or for Western blotting with pS473 and pT308 phospho-specific antibodies. […].
All steps were performed at 4° C. Four hundred plates (Ø […]) of HEK293 cells were harvested in ice-cold phosphate-buffered saline and homogenized in ice-cold buffer A (50 mM Tris-HCl pH 7.4, 300 mM sucrose, 1 mM dithiothreitol, 10 mM sodium fluoride, 0.1 mM sodium orthovanadate, 20 nM okadiac acid, 1 mM phenylmethanesulfonyl fluoride and 1 mM benzamidine) using a polytron homogenizer. The nuclear fraction was removed by centrifuging at 1000 g for 10 min and the resulting supernatant was further centrifuged at 100,000 g for 60 min. […]

PKB = conditions: previous cell culture data; insulin-stimulated for staurosporine; cited from earlier work

O=c1cc(N2CCOCC2)oc2c(-c3ccccc3)cccc12 [LY294002]
phosphorylation of PKB catalyzed by purified DNA-PK (purified DNA-PK): inhibited | S473K1 activity (S473K1): potently inhibited | Ser-473 phosphorylation, sensitivity to inhibitor (PKB): sensitive

COC[C@H]1OC(=O)c2coc3c2[C@@]1(C)C1=C(C3=O)[C@@H]2CCC(=O)[C@@]2(C)C[C@H]1OC(C)=O [wortmannin]
phosphorylation of PKB catalyzed by purified DNA-PK (purified DNA-PK): inhibited | S473K1 activity (S473K1): potently inhibited | Ser-473 phosphorylation, sensitivity to inhibitor (PKB): sensitive
